## Results of single-concentration screens

Chains of the proteins cited; added tags and fusions are not shown.
UniProt P9WFT3, whole entry: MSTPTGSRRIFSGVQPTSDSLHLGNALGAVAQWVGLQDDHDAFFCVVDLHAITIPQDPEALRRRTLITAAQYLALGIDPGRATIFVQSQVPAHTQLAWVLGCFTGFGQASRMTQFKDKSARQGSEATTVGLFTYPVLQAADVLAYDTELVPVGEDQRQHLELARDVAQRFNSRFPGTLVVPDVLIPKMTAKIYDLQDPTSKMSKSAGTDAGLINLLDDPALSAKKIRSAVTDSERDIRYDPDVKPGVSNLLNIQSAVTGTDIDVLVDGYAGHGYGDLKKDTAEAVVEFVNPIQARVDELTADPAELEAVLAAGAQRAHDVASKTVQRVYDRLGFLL
UniProt P9WNZ1, whole entry: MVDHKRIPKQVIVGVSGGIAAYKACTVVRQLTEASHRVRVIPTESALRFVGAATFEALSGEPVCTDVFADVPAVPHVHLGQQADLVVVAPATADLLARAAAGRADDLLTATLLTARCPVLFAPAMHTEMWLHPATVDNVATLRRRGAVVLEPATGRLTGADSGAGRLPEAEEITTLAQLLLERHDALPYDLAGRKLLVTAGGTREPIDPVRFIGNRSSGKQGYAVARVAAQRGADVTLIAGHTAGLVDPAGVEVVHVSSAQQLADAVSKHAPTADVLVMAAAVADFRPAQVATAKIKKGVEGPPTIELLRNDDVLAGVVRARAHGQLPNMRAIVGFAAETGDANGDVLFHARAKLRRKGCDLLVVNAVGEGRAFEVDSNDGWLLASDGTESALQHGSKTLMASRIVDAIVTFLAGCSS

Data taken from ChEMBL document CHEMBL3988442, “University of Dundee, Small-Polar-MMV Screening Library” (2021).

Leishmania in macrophages: 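Cell assay of Leishmania donovani living inside macrophages; the read-out is not stated. Tested at 30 µM. Higher reads as stronger inhibition (inferred: compounds with an IC50 in retests scored well above the rest). Of about 69,000 compounds tested this way, about 1,000 (1.5%) reached 50% or more in at least one test.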
MtTrpRS: 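Tryptophan-tRNA ligase, Mycobacterium tuberculosis (UniProt P9WFT3). Enzyme assay of tryptophanyl-tRNA synthetase; the read-out is not stated. Concentration: 10 µM. Direction is not recorded; retested compounds ran higher, which suggests that high means inhibition. Of about 65,000 compounds tested this way, about 64 (0.098%) reached 50% or more in at least one test.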
Toxoplasma: 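Assay of Toxoplasma gondii numbers, read through their beta-galactosidase reporter with a colour substrate. Concentration: 10 µM. Higher reads as fewer parasites (inferred from which compounds were picked for retests). Of about 67,000 compounds tested this way, about 260 (0.38%) reached 50% or more in at least one test.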
CoaBC: 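Coenzyme A biosynthesis protein CoaBC, Mycobacterium tuberculosis (UniProt P9WNZ1). Enzyme assay of CoaBC with a phosphate dye (Biomol Green) read at 650 nm. Tested at 30 µM. Direction is inferred from only a few compounds that gave an IC50; most scored high, so higher reads as stronger inhibition. Most strong results did not repeat in a second test. About 67,000 compounds were tested under these conditions; 0.06% (about 40) showed 50% or more at least once.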

Results are given as percent effect.
The record does not define 0% and 100%; most values in the screen are far below 50% and negative numbers occur (in some assays of this library far below -100).
Compounds were drawn at random from those tested, without regard to their results.
A dash means the value is not listed here; it may have been measured.

* O=C(NCC1CC1)C1CSCN1S(=O)(=O)c1cccc(F)c1 (centres unmarked) : Leishmania in macrophages: 24.27%; MtTrpRS: 1.639%; Toxoplasma: 2.846%; CoaBC: -4.478%
* Cc1sc(Br)cc1S(=O)(=O)NCc1ccccn1 : Leishmania in macrophages: 2.122%; MtTrpRS: 4.624%; Toxoplasma: 7.01%; CoaBC: 0.2484%
* Cn1ccc(CN2CCC3(CC2)CC(Nc2ccccn2)CO3)n1.O=C(O)C(F)(F)F (centres unmarked) : Leishmania in macrophages: 30.95%; Toxoplasma: 6.862%
* O=C(O)c1cc(S(=O)(=O)N2CCOc3ccccc32)cc(Cl)c1Cl : Leishmania in macrophages: 27.21%; MtTrpRS: 2.139%; Toxoplasma: -13.69%; CoaBC: -6.579%
* Cc1nccn1-c1cc(CNC(=O)N2CCSCC2)ccn1 : Leishmania in macrophages: 13.78%; MtTrpRS: -1.175%; Toxoplasma: -7.85%; CoaBC: 0.489%
* COCCN1CCc2ncnc(NC(C)C)c2CC1.O=C(O)C(F)(F)F : Leishmania in macrophages: 20.66%; Toxoplasma: 10.14%
* Cc1cnc(N2CCC3(CCC(C(=O)NC(C)C)OC3)CC2)nc1 (centres unmarked) : Leishmania in macrophages: 17.81%; MtTrpRS: -1.453%; Toxoplasma: 0.4787%
* Cc1cccc2[nH]c(C3CCN(C(=O)c4ccc[nH]4)CC3)nc12 : Leishmania in macrophages: -1.209%; MtTrpRS: 1.232%; Toxoplasma: -3.001%; CoaBC: 7.6%
* O=C(NCCc1ccncc1)[C@@H]1CC[C@@H]2[C@@H](CCN2Cc2ccco2)O1 : MtTrpRS: 2.766%; CoaBC: 9.446%
* COCCn1cc(-c2cc(C(=O)N3CCCC3)c3ccccn23)nc1C : Leishmania in macrophages: 5.402%; MtTrpRS: 7.502%; Toxoplasma: -1.554%; CoaBC: -152.2%
* O=C(NCc1cccnc1)C1=NOC2(CCN(C(=O)N3CCCC3)C2)C1 (centres unmarked) : MtTrpRS: 2.116%; CoaBC: 4.235%
* Cc1ccccc1C1(CNC(=O)NC(C)c2nncn2C)CC1 (centres unmarked) : Leishmania in macrophages: -2.804%; MtTrpRS: -5.062%; Toxoplasma: -3.509%; CoaBC: 4.981%
* CNC(=O)c1ccc(C2CN(c3cc(C)nc(N)n3)CCO2)nc1 (centres unmarked) : Leishmania in macrophages: -27.57%; MtTrpRS: 17.43%; Toxoplasma: -5.795%; CoaBC: -21.79%
* Cn1cc(CN(C/C=C/c2ccccc2)C2CC2)cn1 : Leishmania in macrophages: -11.53%; MtTrpRS: -2.039%; Toxoplasma: -18.09%; CoaBC: 2.152%
* CC(C)NC(=O)CC1COC2(CCN(Cc3ccsc3)CC2)C1 (centres unmarked) : MtTrpRS: -2.653%; CoaBC: 4.941%
* COCC(=O)NCc1cc(=O)n2c(n1)CN(Cc1ccccc1)CCC2.O=C(O)C(F)(F)F : Leishmania in macrophages: 41.28%; Toxoplasma: -19.58%
* COCC(=O)N1C[C@H]2CN(Cc3cccc(F)c3)C(=O)[C@H]2C1 : MtTrpRS: 2.674%; CoaBC: 5.477%
* c1ccc(CNc2cc(C3CCCNC3)ccn2)nc1 (centres unmarked) : MtTrpRS: 6.51%; CoaBC: 2.632%
* CC(C)OCCOCC(O)CN(C)C(=O)Nc1ccc(F)cc1Cl (centres unmarked) : Leishmania in macrophages: 16.72%; MtTrpRS: -2.216%; Toxoplasma: 1.311%; CoaBC: 8.696%
* O=C(O)C(F)(F)F.O=C(O)C(F)(F)F.[H][C@@]12CCN(Cc3ccncc3)[C@]1([H])CC[C@@H](C(=O)NCC1CCOCC1)O2 : Leishmania in macrophages: -5.718%; Toxoplasma: -4.085%
* Cc1noc(C)c1CNS(=O)(=O)N(C)Cc1ccccc1Br : Leishmania in macrophages: 27.63%; MtTrpRS: -0.6686%; Toxoplasma: -4.618%; CoaBC: 3.984%
* Cc1nn(C)c2c(NCc3ccccn3)nc(C(C)C)nc12 : Leishmania in macrophages: -99.92%; MtTrpRS: 3.297%; Toxoplasma: 21.78%; CoaBC: 3.33%
* Cn1cc(-c2nc(CN3CCn4c(nnc4C4CC4)C3)cs2)cn1 : Leishmania in macrophages: 0.5973%; MtTrpRS: -2.862%; Toxoplasma: 19.74%; CoaBC: -2.564%
* CCN(Cc1ccncc1)C(=O)c1cn(CCC2CCCCC2)nn1 : Leishmania in macrophages: 9.253%; MtTrpRS: 0.3458%; Toxoplasma: -1.017%; CoaBC: 7.178%
* Cc1nn(C)c(Cl)c1S(=O)(=O)N(C)c1ccc(Cl)cn1 : Leishmania in macrophages: 20.43%; MtTrpRS: 0.1899%; Toxoplasma: 6.364%; CoaBC: 4.28%
* CN(Cc1ccoc1)c1ccc(-c2nccn2C)nn1 : Leishmania in macrophages: -24.53%; MtTrpRS: -1.528%; Toxoplasma: 3.894%; CoaBC: 2.683%
* c1cnc(N2CCO[C@H]3CN(Cc4c[nH]cn4)C[C@H]32)cn1 : MtTrpRS: -3.787%; CoaBC: 9.572%
* CCOc1ccc2[nH]c(=O)c(CN3CCCC3c3ccccn3)cc2c1 (centres unmarked) : Leishmania in macrophages: -9.445%; MtTrpRS: -4.078%; Toxoplasma: -7.502%; CoaBC: 8.738%

Repeated from the top, 4 entries:

structure	Leishmania in macrophages	MtTrpRS	Toxoplasma	CoaBC
O=C(NCC1CC1)C1CSCN1S(=O)(=O)c1cccc(F)c1 (centres unmarked)	24.27	1.639	2.846	-4.478
Cc1sc(Br)cc1S(=O)(=O)NCc1ccccn1	2.122	4.624	7.01	0.2484
Cn1ccc(CN2CCC3(CC2)CC(Nc2ccccn2)CO3)n1.O=C(O)C(F)(F)F (centres unmarked)	30.95	-	6.862	-
O=C(O)c1cc(S(=O)(=O)N2CCOc3ccccc32)cc(Cl)c1Cl	27.21	2.139	-13.69	-6.579